Experimental data as given in the supplement of paper PMC4635364.
Structures can show the parent of a compound that is named as a salt. The list shows a part of the results. This data set is noisy: repeats of one test often differ as much as different tests do.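 ReNCell VM, a human fetal ventral-midbrain neural progenitor line, was differentiated without mitogens. Blinded raters scored images stained for doublecortin (early neurons) or tyrosine hydroxylase (dopaminergic neurons) against untreated wells (0 = no change). Scores were averaged across repeats and both raters, and compounds averaging 2 or more were selected as hits for retesting.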

What follows are compounds tested on ReNCell VM (assay: neuronal differentiation score (DCX+ cell fraction vs untreated, manual image score) (score (-3 to 3)); higher = more neuronal differentiation). Settings: library: LOPAC; 2 uM; 2 weeks.

Neuronal differentiation score, inactive:
CC(C)COC(=O)OCN1C(=O)CN(CCN2CC(=O)N(COC(=O)OCC(C)C)C(=O)C2)CC1=O [Sobuzoxane] 0, CC1CN(S(=O)(=O)c2cccc3cnccc23)CCN1 (stereo not drawn) 0, N=C1Sc2ccccc2C2=NCCCN12 0, C#Cc1ccc2c(c1)C(=O)N(C)Cc1c(C(=O)OCCCOC(=O)c3ncn4c3CN(C)C(=O)c3cc(C#C)ccc3-4)ncn1-2 [Xli 093 hydrate] 0, CC(C)Cn1c(=O)n(C)c(=O)c2[nH]cnc21 [3-Isobutyl-1-methylxanthine] 0, C[C@]12CCC(=O)C=C1CC[C@@H]1[C@@H]2[C@@H](O)C[C@@]2(C)[C@H]1CC[C@]2(O)C(=O)CO [Hydrocortisone] 1, Nc1ccc(CCNc2ncnc3c2ncn3C2OC(CO)C(O)C2O)cc1 (stereo not drawn) [N6-2-(4-Aminophenyl)ethyladenosine] -3

Same assay, conditions: library: Prestwick; 2 uM; 2 weeks

Neuronal differentiation score, inactive:
CC(=O)OCC(=O)[C@@]12OC(C)(C)O[C@@H]1C[C@H]1[C@@H]3C[C@H](F)C4=CC(=O)C=C[C@]4(C)[C@@]3(F)[C@@H](O)C[C@@]12C [Fluocinonide] 0, CN1CCOC(c2ccccc2)c2ccccc2C1 (stereo not drawn) [Nefopam hydrochloride] 0, CN1CCN(C(c2ccccc2)c2ccccc2)CC1 [Cyclizine hydrochloride] 0, Clc1ccc(CO/N=C(\Cn2ccnc2)c2ccc(Cl)cc2Cl)c(Cl)c1 [Oxiconazole Nitrate] 0, C1N2CN3CN1CN(C2)C3 [Methenamine] 0, CNC(=C[N+](=O)[O-])NCCSCc1csc(CN(C)C)n1 [Nizatidine] 0, OCC(O)CN1CCN(c2ccccc2)CC1 (racemic) [Dropropizine (R,S)] 0

Same assay, conditions: library: Spectrum; 2 uM; 2 weeks

Neuronal differentiation score, inactive:
CC1(C)OC(=O)NC1=O 0, CNc1ccccc1C(=O)N1CCc2c([nH]c3ccccc23)C1=O 0, CC1=C(C)C(=O)C(C(CCCCCC(=O)O)c2ccccc2)=C(C)C1=O (stereo not drawn) 0, O=C(O)/C=C/c1ccc(O)c(O)c1 0, CCOC(=O)c1ccc(O)cc1 0, CN(C)CCCOc1nn(Cc2ccccc2)c2ccccc12 0, CCCCOc1ccc(OCCCN2CCOCC2)cc1 0, CC[C@H]1OC(=O)[C@H](C)C(=O)[C@H](C)[C@@H](O[C@@H]2O[C@H](C)C[C@H](N(C)C)[C@H]2O)[C@](C)(OC)C[C@@H](C)C(=O)[C@H](C)[C@H]2N(CCCCn3cnc(-c4cccnc4)c3)C(=O)O[C@]12C 0, COc1ccc(-c2c(O)c3c(OC)c4c(cc3oc2=O)OC(C)(C)C=C4)cc1 0, COc1cc2oc3cc(OC)c(OC)c(CC=C(C)C)c3c(=O)c2c(O)c1CC=C(C)C 0, COc1ccccc1OCCNCC(O)COc1cccc2[nH]c3ccccc3c12 (stereo not drawn) 0, COc1ccc(C(=O)c2ccccc2)c(O)c1 0, Cc1cn[nH]c1 0, Nc1nc(=O)c2c([nH]1)NCC(CNc1ccc(C(=O)N[C@@H](CCC(=O)O)C(=O)O)cc1)N2C=O (stereo partly drawn) 0, CC(=O)c1c(O)cc(O)cc1O 0, Cc1ncc([N+](=O)[O-])n1CC(C)O (stereo not drawn) 0, NC[C@H]1O[C@H](O[C@H]2[C@H](O)[C@@H](O[C@H]3O[C@H](CO)[C@@H](O)[C@H](N)[C@H]3O)[C@H](N)C[C@@H]2N)[C@H](N)[C@@H](O)[C@@H]1O 0

Same assay, conditions: library: Tocriscreen; 2 uM; 2 weeks

Neuronal differentiation score, inactive:
O=c1cc(N2CCNCC2)oc2c(-c3ccccc3)cccc12 0, CC[C@@H]1C(=O)OC[C@@H]1Cc1cncn1C [Pilocarpine hydrochloride] 0, CCn1c(=O)n(C2=C(CO)CN(CC3CCCCCCC3)CC2)c2ccccc21 1, CN(C)CCCn1cc(C2=C(c3c[nH]c4ccccc34)C(=O)NC2=O)c2ccccc21 0, COc1ccc2c(c1OC)C(=O)O[C@@H]2[C@H]1c2c(cc3c(c2OC)OCO3)CCN1C [Noscapine hydrochloride] 0

The compounds below were run on ReNCell VM (assay: dopaminergic neuron differentiation score (TH+ cell fraction vs untreated, manual image score) (score (0 to 3)); higher = more TH+ dopaminergic neuron differentiation). Settings: library: LOPAC; 2 uM; 4 weeks; BDNF 10 ng/ml + GDNF 10 ng/ml.

Dopaminergic neuron differentiation score, inactive:
CC(C)COC(=O)OCN1C(=O)CN(CCN2CC(=O)N(COC(=O)OCC(C)C)C(=O)C2)CC1=O [Sobuzoxane] 0, CC1CN(S(=O)(=O)c2cccc3cnccc23)CCN1 (stereo not drawn) 0, N=C1Sc2ccccc2C2=NCCCN12 0, C#Cc1ccc2c(c1)C(=O)N(C)Cc1c(C(=O)OCCCOC(=O)c3ncn4c3CN(C)C(=O)c3cc(C#C)ccc3-4)ncn1-2 [Xli 093 hydrate] 0, CC(C)Cn1c(=O)n(C)c(=O)c2[nH]cnc21 [3-Isobutyl-1-methylxanthine] 0, C[C@]12CCC(=O)C=C1CC[C@@H]1[C@@H]2[C@@H](O)C[C@@]2(C)[C@H]1CC[C@]2(O)C(=O)CO [Hydrocortisone] 0, Nc1ccc(CCNc2ncnc3c2ncn3C2OC(CO)C(O)C2O)cc1 (stereo not drawn) [N6-2-(4-Aminophenyl)ethyladenosine] 0
